From PMC12370185 come the findings set out here.

Holding throughout (conditions): 10 mM Tris-Cl pH 7.5, 50 mM NaCl, 1 mM DTT, 0.25 mg/ml BSA, 2 mM MgCl2, 0.025% Nonidet P-40, 5% glycerol; 28 nM nucleosome library; 10 min on ice then 30 min …; high values mean tight binding; double strand, one strand shown
The subject of one test is KLF4 + histone octamer. The test can be described thus: EMSA with sequencing.
For test [1], the system named is SOX2 + histone octamer. The test can be described thus: EMSA with sequencing.
Test [2] deals with c-MYC + MAX + histone octamer. The test can be described thus: EMSA with sequencing.
A further test deals with OCT4 + histone octamer. The test can be described thus: Pioneer-seq (competitive nucleosome EMSA with sequencing).
Test [3] has as its system c-MYC + MAX + histone octamer. Described as above.
Test [4] concerns SOX2 + histone octamer. The test is described as above.

The list shows a part of the results. For part of these data: At the low end of the ranking the order means little.

With “GATGGACCCTATACGCGGCATGAACATTCATTCGGGTGGCTGTCTTTGGGTGAACACATGGATGCATTTCTGGTGGGGGTGGAGTTGCCCGGTCATAAGGTATGTGCATGTTCACCTTGAGTAGATACTGCATAGCAGCGCAGTCCACCCAAAGCGGGTAGACAAATTTGCAATGCCATTGGCAGTGTGATGGGAGACACAGAAAGAGAGTGCCAGTCGGATAGTGTTCC”, the binding signal (log2 relative supershift) in the test on KLF4 + histone octamer is 1.66; with SOX2 + histone octamer [1], 0.701; in test [2], 0.584; in the test on OCT4 + histone octamer, -0.717.

On to “GATGGACCCTATACGCGGCTCTAACAACAATTTATATGTGTATGTGCCAAGATAGGGGGGTGGGTTTCCTGAGGGCTGGAGACAGGACAGGTATGACCATGCACAGCCGCATTCTTTGGCAGAGAACACACATGATTCCCCCAAATATGTTTCTGGAAACGGAATTGAGTCTGTTCTGTGCTGAGATCTTTGACTTTCTTGAGGACAAAATGCCAGTCGGATAGTGTTCC”, for which the binding signal (log2 relative supershift) in the test on KLF4 + histone octamer was 0.492; with SOX2 + histone octamer [1] it was 0.665; in the test with OCT4 + histone octamer it was -0.536; in test [3], -0.438.

Take “GATGGACCCTATACGCGGCACAGAATCTCTGCCAGAGTTTACAGCCTACTGCCCTGTGGAATCTGAACAGAAGATTGCAACAGCAACTCTTATCTGCATCTCCAACCTGAAGGCCTGTCCCATGGATTTCAGACTTGTCAGCCCCCACAATCATGTGAGCCAACTCCTTAAAATGTGTGTTTATATGTGCATCCTATTGGTGTGTTTCCTTGCCAGTCGGATAGTGTTCC”: the binding signal (log2 relative supershift) is 1.9 in the test with KLF4 + histone octamer, 0.115 in the test with SOX2 + histone octamer [1], 0.464 in test [2] and -0.408 in the test with OCT4 + histone octamer.

Regarding “GATGGACCCTATACGCGGCCTGTTTGGAAATTCATCATGGTAGAATGGAAAACACACATGCTCTGTAGTCAAGCACATCTAAGTGCCTCTTCCATCACTTACTGTCTGCATGACCATAAATCAGTCTGTCTGAGCCTCAGTTTTCTCATCCACCAAATGAAAGTAACACCTGACTCATGGAGTTTTCCTGCTGATGATATAATGAGATGATGCCAGTCGGATAGTGTTCC”, the binding signal (log2 relative supershift) with KLF4 + histone octamer was 0.13; with SOX2 + histone octamer [1] it was 0.981; in test [2], 0.296; with OCT4 + histone octamer it was -0.371.

Consider “GATGGACCCTATACGCGGCTCCCAACACCACCCTTCCTTCTTTTGATTCCAGCATGTGCGAGGATGCAGGACTCAACTACTATGCATTCAGGCTATGTTCTGCGACTGCACGGTGCACTGCTTTTGTAATGCAAATAGGAGGCACAAAGTGTCTCTTTGATAATGTGCAGTCAGAAGACAAAAAAGCATTCACTGAAACAGTAAAACTAATGCCAGTCGGATAGTGTTCC”, for which the binding signal (log2 relative supershift) in the test with KLF4 + histone octamer is 1.17; in the test with SOX2 + histone octamer [1], 1.53; in test [2], 0.192; in the test on OCT4 + histone octamer, -0.136.

As for “GATGGACCCTATACGCGGCACAAGAAAGTAATCCACGGAAGGAACAAGAAGTGTCCTAAACAGTAGCAAACCTTACACATCAGGACAATCACACAGGCTCTGGTGTCAGATTCCAGCTTCAACCTCATCGGTGTGACCTCAAGCAACTCATGCGCCCTCTTTTTCTCATGTGAAGTGAGAATATCATTGGCCACACCAAGGGTAGCCTAGTGCCAGTCGGATAGTGTTCC”, the binding signal (log2 relative supershift) is 2.25 in the test on KLF4 + histone octamer, 0.0503 in the test with SOX2 + histone octamer [1], 0.0302 in test [2] and -0.549 with OCT4 + histone octamer.

With “GATGGACCCTATACGCGGCTCTGCTGGGCACTCTTTGTGGGATGCACACATGGGTGGGTGTGTCTGCACTGAGCCCTTAGACACACCTAAGCCCAGCCCCATTGTGAATAAGGATGAGCATGTGTGAGCCTAGCTGTCTTTCAGGAAAGAGTCAGAAATCAGTTAATGGATACAGTTAAGTGAACGAGACCCATGCGCCTTGGGATGGCCTGCCAGTCGGATAGTGTTCC”, the binding signal (log2 relative supershift) is 2.05 with KLF4 + histone octamer, 0.0167 in the test with SOX2 + histone octamer [1], 0.799 in test [2] and -0.0197 in the test on OCT4 + histone octamer.

With “GATGGACCCTATACGCGGCGCCGTTGTCTTCTTATGCAAGAATAAGGTACGTCTTTCCATCCACTCACGTCTATTTAATTTGACTTTGCATTACACAGAAAGCTGGTCTTGGTCTGTCTACCTCGGCATCTAGTTGTCCTCACTGCCCCCTAGCCGACCCCACCCCATCTGACTGACTACCCCATCACAGAGTACTTTTATTTACGTTTTTGCCAGTCGGATAGTGTTCC”, the binding signal (log2 relative supershift) was 0.732 in the test on KLF4 + histone octamer, 0.915 with SOX2 + histone octamer [1], -0.207 in the test with OCT4 + histone octamer and -0.23 in test [3].

On to “GATGGACCCTATACGCGGCTCACCCACCCACACATACTCACACATGCCTGCACACGCATACACTCATGCATGCACACACGGTCATCCACCCACATATACACACACATGCACGTTCACATGCACACTCGCATGCACACATGCAGTCACCCACCCACACGTGCACACTCACACACGCATACATAGACATACACACACACGAAGTCACCCACCTGCCAGTCGGATAGTGTTCC”, for which the binding signal (log2 relative supershift) is 2.06 with KLF4 + histone octamer, 1.61 in test [2], -0.224 with OCT4 + histone octamer and -0.759 in the test on SOX2 + histone octamer [4].

In the case of “GATGGACCCTATACGCGGCCTCCTAAGAGGCTTCTCATAGCAAACTCCCCCTCCTTCCGCTGAGAGGGTTTGATGGCAGGCAACAGATGACTTAGGACTCCTCTAATGGTCTTTAGGAACAGGAAGGCACCACCACCATTATCATGCAACATTGTTCTGGAAGTGCAAGCCAATGCAATTAGATAAGGAGAAAAATAAGAGGTAAATGTATGCCAGTCGGATAGTGTTCC”, the binding signal (log2 relative supershift) is 1.71 in the test on KLF4 + histone octamer, 0.371 in the test on SOX2 + histone octamer [1], -0.0711 in the test with OCT4 + histone octamer and -0.522 in test [3].

For the sequence “GATGGACCCTATACGCGGCCCCTCTTCTTCCAGTTCTTTGTTTCTCTAGTTTCTATAGTTACCCGTGCTGTAAACAACCCTTCCTGCCCTGACTGTTCCCTGACATGTCCTGACAAGTCTAGACAGGCCTTGCACCATAATGGATAGCCTTCCCCTTCCTGCCTAGATAGCTGTATTCAATTTCAAACATTAGCCAATCAGGTCAGTTTATGCCAGTCGGATAGTGTTCC”, the binding signal (log2 relative supershift) with KLF4 + histone octamer is 0.165; in the test on SOX2 + histone octamer [1], 1.35; with OCT4 + histone octamer, -0.375; in test [3] it was -0.39.

Turning to “GATGGACCCTATACGCGGCAAAAAAAAAGCGAAGGTGAGATGAAGCTTCAGAAAATAGAGGGCCGGGGAGGACACAGGCAGACAGAAGGAATGAGCGACTCAGTCTCAGGTTTCTGGGTCAGATCCAGGTCACATGTTTTGTCTCCTATAAAACTTACACCATACTTGTCGTTACTTGTTCAGTGCCTGCCTCTTCAACTAGGCTGTGAATGCCAGTCGGATAGTGTTCC”, the binding signal (log2 relative supershift) in the test with KLF4 + histone octamer is 1.4; in the test on SOX2 + histone octamer [1], 0.909; with OCT4 + histone octamer, -0.16; in test [3], -0.0792.
